Measurements as given in article PMC11092260.
No constants are given. Whether binding was seen depends on the method and setting. In cells and extracts the contact can be indirect. Some results given as binding are weak or reduced against the parent protein; the word gives no strength.

Molecular target: E3 ubiquitin ligase c-Cbl (human (endogenous in HCC cells)) (UniProt P22681)
Assay: co-IP; HCC cells lysed in RIPA buffer with protease inhibitors; anti-PSMD9 or anti-CBL antibody or negative control IgG on protein A/G agarose, overnight at 4 °C; washed five times; Western blotting

B1: 26S proteasome non-ATPase regulatory subunit 9 (PSMD9) (protein, UniProt O00233 1-223)
chain: MSDEEARQSGGSSQAGVVTVSDVQELMRRKEEIEAQIKANYDVLESQKGIGMNEPLVDCEGYPRSDVDLYQVRTARHNIICLQNDHKAVMKQVEEALHQLHARDKEKQARDMAEAHKEAMSRKLGQSESQGPPRAFAKVNSISPGSPASIAGLQVDDEIVEFGSVNTQNFQSLHNIGSVVQHSEGKPLNVTVIRRGEKHQLRLVPTRWAGKGLLGCNIIPLQR
  binding: binds
